Here are results for two sequences from paper PMC8080764.

The exact form of at least one protein or probe is not confirmed. Results from cells or extracts need not show a direct contact. The comparison behind a weaker result is the experiment's own reference, which may not be listed here. Tags and fusion partners may be left off the protein sequences shown.

The series concerns the target T1, SRF WT (HA-SRF, pCGN-SRF-HA) (UniProt P11831).
T1 sequence (looked up, limits assumed): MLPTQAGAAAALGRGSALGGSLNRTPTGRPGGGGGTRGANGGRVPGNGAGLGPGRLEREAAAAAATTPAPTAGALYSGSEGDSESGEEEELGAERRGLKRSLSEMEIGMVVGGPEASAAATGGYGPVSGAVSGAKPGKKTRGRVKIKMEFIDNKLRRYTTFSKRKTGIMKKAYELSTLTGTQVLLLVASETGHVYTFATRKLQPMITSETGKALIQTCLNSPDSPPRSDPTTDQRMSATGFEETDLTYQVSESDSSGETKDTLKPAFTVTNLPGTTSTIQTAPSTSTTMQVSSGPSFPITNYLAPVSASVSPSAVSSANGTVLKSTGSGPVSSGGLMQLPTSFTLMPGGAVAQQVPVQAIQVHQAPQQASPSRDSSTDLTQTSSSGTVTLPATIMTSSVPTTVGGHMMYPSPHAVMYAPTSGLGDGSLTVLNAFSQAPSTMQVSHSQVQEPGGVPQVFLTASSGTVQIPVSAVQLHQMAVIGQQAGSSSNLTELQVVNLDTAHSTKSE
Put plainly: EMSA. The conditions noted are these: LightShift chemiluminescent EMSA kit binding buffer (composition, salt and pH not given), 30 min at room temperature, 5% PAGE, 0.5x TBE, 100 V, 1 h, protein in an extract, protein details: HA, label: 3' biotin.

With “GACACCCAAATATGGCTTGG (double strand) [Acta1 SRE near (proximal SRE)]”, the binding result is recorded as “binds”. Also, the binding result (KDM2B co-transfected) is reported as “binds more weakly”.
As for “AGAACCCATAAATGGGGTGC (double strand) [Acta1 SRE far (distal SRE)]”, the binding result is “binds”. For the same sequence, the binding result (KDM2B co-transfected) is on record as “binds more weakly”.
